Source: US6991909B2, “Enkurin and uses thereof” (University of Massachusetts, priority 2002, dated 2006)
Some results were stated once for a whole list of compounds, not compound by compound.

Amino acid sequences for entries named in this document (tags omitted). A change or cut given only in a name is not applied to a line headed by its entry.
UniProt P48995: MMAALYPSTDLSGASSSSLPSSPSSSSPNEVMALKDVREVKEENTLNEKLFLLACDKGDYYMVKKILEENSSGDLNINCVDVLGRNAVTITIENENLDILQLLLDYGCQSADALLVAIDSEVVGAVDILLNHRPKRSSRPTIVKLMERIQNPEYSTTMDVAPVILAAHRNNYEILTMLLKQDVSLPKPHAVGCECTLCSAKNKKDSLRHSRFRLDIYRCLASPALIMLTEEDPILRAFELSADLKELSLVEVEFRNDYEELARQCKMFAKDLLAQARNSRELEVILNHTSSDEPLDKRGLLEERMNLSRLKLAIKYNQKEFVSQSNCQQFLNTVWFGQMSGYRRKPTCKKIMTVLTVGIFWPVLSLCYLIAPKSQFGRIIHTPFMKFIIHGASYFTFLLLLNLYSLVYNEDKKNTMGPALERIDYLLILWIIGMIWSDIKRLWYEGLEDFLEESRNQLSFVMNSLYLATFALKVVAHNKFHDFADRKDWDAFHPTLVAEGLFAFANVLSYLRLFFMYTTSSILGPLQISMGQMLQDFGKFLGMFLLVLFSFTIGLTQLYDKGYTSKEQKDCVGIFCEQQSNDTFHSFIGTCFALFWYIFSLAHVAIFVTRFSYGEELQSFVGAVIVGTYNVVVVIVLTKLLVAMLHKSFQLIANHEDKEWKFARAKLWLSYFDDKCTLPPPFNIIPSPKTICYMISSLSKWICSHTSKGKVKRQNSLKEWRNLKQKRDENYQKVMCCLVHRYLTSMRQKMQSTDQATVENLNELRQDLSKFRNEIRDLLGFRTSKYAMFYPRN

Molecular target: T1, hTRPC1 (Homo sapiens, UniProt P48995)
T1 construct: expressed in transfected cells; host or cells: HEK cells
Assay: Perforated whole cell patch clamp of ATP-evoked currents in HEK cells transfected with full-length hTRPC1
Assay type: cell-based

KVVA peptide: TRPC1-specific peptide KVVAHNKFHDFADRKDWDAFH (SEQ ID NO:19) (Synthetically generated peptide)
neutralization of the anti-KVVA inhibition of ATP-evoked current: > 95%
